# Data taken from patent publication US20230357300A1, “TRITERPENE SAPONIN SYNTHESIS, INTERMEDIATES AND ADJUVANT COMBINATIONS” (priority 2017, published 2023).
# Some of these results come from one statement about several compounds together.
# System: mice
# Assay type: in vivo
# Settings: mice vaccinated SC days 1 and 15, weighed daily; 50 mcg TiterQuil-1055, 20 mcg QS-21, Adacel 2.5 mcg pertussis toxin
# Procedure: Adacel doses containing 1, 0.3, and 0.1 mcg of pertussis toxin per mouse were administered subcutaneously (SC, with no immunological adjuvant), using 2 vaccinations 4 weeks apart, resulting in a mean of 1,618 mcg, 898 mcg, and 107 mcg respectively of anti-PT antibody per ml of serum drawn 2 weeks after the second vaccination. The 0.1 mcg dose was indistinguishable from unvaccinated controls (96 mcg/ml). A 0.5 mcg dose of Adacel was selected for a pharmacology/toxicology (pharm/tox) study. The serological results for this study are summarized in FIG. 3 of the present application.
# A pharm/tox study was conducted in 7 groups of 5 mice: 1) PBS alone, 2) 50 mcg TiterQuil-1055, 3) 20 mcg QS-21, 4) Adacel 2.5 mcg pertussis toxin (⅕ the human dose), 5) Adacel + QS-21 (20 mcg QS-21), 6) Adacel + TiterQuil-1055 (50 mcg), 7) Adacel + TiterQuil-1055 (50 mcg). Mice were vaccinated SC on days 1 and 15, weighed daily, and bled and sacrificed on day 22, except for group 7 which was sacrificed on day 29. […] Histopathology of 33 different tissues was performed on all mice. Detected abnormalities were restricted to the liver. […] This abnormality was short lived and was no detected in group 7, which was sacrificed one week after groups 1-6.
substance,measurement,value
QS-21 [reference compound],weight loss,7-9%
